The source of these data is PubChem BioAssay AID2685 (National Center for Advancing Translational Sciences (NCATS), 2010).

By AC50 is commonly meant the midpoint of the concentration-response curve, whichever way the signal moves.

The list shows a part of the results. The main result of the screen is listed elsewhere. These columns were measured beside it and carry no call. The list favours compounds with an active or inconclusive main result. The note in brackets gives the kind of curve behind each potency; many fits are weak.

This assay is described as follows: qHTS Assay for Lipid Storage Modulators in Drosophila S3 Cells.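 For cell number change: cells counted by Cell Tracker Red CMTPX staining in the red channel.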 Conditions: BODIPY lipid droplet fluorescence, 18-24 h; for cell number change: measured here: cell count max response, cells fed with added oleic acid. In a few lines: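 Drosophila S3 cells loaded with oleic acid (400 uM, as added) and compounds at several concentrations; lipid droplets imaged by 488-nm laser-scanning cytometry, 500–530 nm intensity and object ratio to cell channel. Percent activity normalized to 20 uM Triacsin C.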

[1] abbreviates: measured here: cell number channel AC50, cells fed with added oleic acid.
Where [2] appears, read: measured here: lipid fluorescence (Fed channel) AC50, cells fed with added oleic acid.

For `CC(=O)c1c(C)[nH]c(C(=O)NCc2ccc(F)cc2)c1C`, the cell number change is 27.7%.
`O=c1oc(C2(O)CCCCC2)cc2ccc(/C=C/c3ccc(F)cc3)cc12`: the cell number change turned out to be 0.388%. The AC50 under setting [1] was 0.13 µM [falling, single point].
With `O=C(NCC(c1cccs1)N1CCOCC1)c1cc(-c2ccc(F)cc2)nc2ccccc12` (stereo not given), the cell number change amounted to 44.3%. For the same compound, the AC50 under setting [1] is 1.3 µM [rising, full curve].
As to `COc1ccccc1CNC(=O)C1Cc2ccccc2C(=O)O1` (stereo not given), the cell number change was 161%.
Same read-out and setting: to `Cc1ccc(-n2ncc3c2ncn2c(-c4ccncc4)nnc32)cc1` belongs 10.1%.
With `CCOc1ccc(NS(=O)(=O)c2cc(Cl)ccc2OC)cc1`, the cell number change was -89.2%. The AC50 under setting [1] is 23.1 µM [falling, partial curve]. For the same compound, the AC50 under setting [2] is 25.9 µM [falling, partial curve].
Regarding `N#CNC(N)=Nc1cccc(Cl)c1`, the cell number change turned out to be 20.3%.
As for `Cn1c(=O)oc2cc(S(=O)(=O)NC(Cc3ccccc3)C(=O)N3CCCCC3)ccc21` (stereo not given), the cell number change was determined as 2.53%. Besides, under setting [2], the AC50 is 14.6 µM [falling, partial curve].
Regarding `O=C(NC(=S)Nc1ncccn1)c1ccc(F)cc1`, the cell number change was -15.8%.
Regarding `O=C(N/N=C/c1cn(-c2cccs2)nc1-c1ccccc1)c1ccccc1Cl`, the cell number change was found to be 24.5%. For the same compound, the AC50 under setting [2] was 29.1 µM [rising, single point].
Take `Cc1cccc(C(=O)Nc2sc3c(c2C(=O)O)CCCC3)c1`: the cell number change is -39.4%. Further, the AC50 under setting [1] is 29.1 µM [falling, single point].
Turning to `OC(COc1ccc(F)cc1Cl)CN1CCc2ccccc2C1` (stereo not given), the cell number change was -15.2%. Moreover, the AC50 under setting [2] was 6.51 µM [falling, single point].
Consider `CC1CC(C)CN(C(=O)c2cn(C)c3ccc(S(=O)(=O)N(C)C)cc3c2=O)C1` (stereo not given), for which the cell number change was found to be 48.4%. In addition, under setting [1], the AC50 was 0.13 µM [rising, full curve]. The AC50 under setting [2] was 0.259 µM [rising, full curve].
With `Clc1ccccc1CN(Cc1ccccc1)c1ncnc2nc[nH]c12`, the AC50 under setting [2] is 1.3 µM [falling, full curve].
With `CCc1nn2c(=O)cc(COc3ccc(NC(=O)c4ccco4)cc3)nc2s1`, the cell number change is -35.9%. Further, the AC50 under setting [1] was 29.1 µM [falling, single point].
On to `COc1ccc(NC(C)=O)cc1S(=O)(=O)NCCc1ccccn1`, for which the cell number change is -4.65%. For the same compound, under setting [2], the concentration at half-maximal activity (AC50) was 6.51 µM [rising, partial curve, poor fit].
In the case of `COc1ccc(/C=N/Nc2nnc(C)n2N)cc1OC`, the cell number change was found to be 12.1%. In addition, the AC50 under setting [2] is 0.92 µM [rising, full curve, poor fit].
`COc1cc(C)nc(OCCNS(=O)(=O)c2cc(C)ccc2C)n1`: the cell number change was 45.7%. In addition, the AC50 under setting [1] was 2.91 µM [rising, partial curve]. The AC50 under setting [2] is 1.64 µM [rising, partial curve].
`COc1ccc(C)cc1NC(=O)CSc1nc2ccccc2nc1N1CC(C)OC(C)C1` (stereo not given): the cell number change is 10.1%. Further, the AC50 under setting [2] is 0.58 µM [rising, full curve, poor fit].
